Test results published in paper PMC7862700.
The list shows a part of the results, in another mix than the full data. For part of these data: At the low end of the ranking, values are background and their order means little. The list shows a part of the results. For part of these data: The source does not settle which construct or isoform was used.

Tests used:
ELK4 = target: T1, ELK4 (UniProt P28324-2); assay: DAPPL (digital affinity profiling via proximity ligation, sequencing); conditions: 10 mM Tris-HCl pH 7.5, 50 mM NaCl, 1 mM DTT, 4% glycerol, room temperature, 30 min; GST-TFs on glutathione beads, 16-mer random dsDNA library, 0.1% …; high values mean tight binding; double strand, one strand shown; scale: fold enrichment (6-mer frequency, TF over GST control)
T1 sequence: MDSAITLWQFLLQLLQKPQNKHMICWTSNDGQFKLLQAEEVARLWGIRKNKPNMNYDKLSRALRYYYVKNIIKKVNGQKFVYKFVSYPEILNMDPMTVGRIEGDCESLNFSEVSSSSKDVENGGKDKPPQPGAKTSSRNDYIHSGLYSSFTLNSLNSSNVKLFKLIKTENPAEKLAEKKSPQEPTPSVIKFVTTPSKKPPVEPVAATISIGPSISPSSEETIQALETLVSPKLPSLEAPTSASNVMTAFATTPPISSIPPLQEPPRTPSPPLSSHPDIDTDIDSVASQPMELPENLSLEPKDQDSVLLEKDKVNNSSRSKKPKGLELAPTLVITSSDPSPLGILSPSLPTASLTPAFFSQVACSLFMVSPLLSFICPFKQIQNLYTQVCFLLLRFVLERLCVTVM

ETV4 = target: T2, ETV4 (UniProt P43268); assay: as above; conditions: 10 mM Tris-HCl pH 7.5, 50 mM NaCl, 1 mM DTT, 4% glycerol, room temperature, 30 min; GST-TFs on glutathione beads, 16-mer random dsDNA library, 0.1% …; high values mean tight binding; double strand, one strand shown; scale: fold enrichment (6-mer frequency, TF over GST control)
T2 sequence: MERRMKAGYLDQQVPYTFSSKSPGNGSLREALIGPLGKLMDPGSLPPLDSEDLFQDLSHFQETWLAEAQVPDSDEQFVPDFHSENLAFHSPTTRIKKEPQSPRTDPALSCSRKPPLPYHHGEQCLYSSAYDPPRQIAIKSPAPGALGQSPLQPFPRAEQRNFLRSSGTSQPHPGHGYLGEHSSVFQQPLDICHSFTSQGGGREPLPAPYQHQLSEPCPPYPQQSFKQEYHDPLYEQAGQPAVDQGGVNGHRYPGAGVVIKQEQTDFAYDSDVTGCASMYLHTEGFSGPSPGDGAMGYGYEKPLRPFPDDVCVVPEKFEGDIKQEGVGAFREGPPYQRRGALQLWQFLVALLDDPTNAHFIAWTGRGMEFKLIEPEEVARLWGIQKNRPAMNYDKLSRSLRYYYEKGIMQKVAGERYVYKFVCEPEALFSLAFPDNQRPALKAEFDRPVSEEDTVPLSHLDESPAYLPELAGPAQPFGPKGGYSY

Row | Sequence | binding signal (ELK4) | binding signal (ETV4)
1 | AACTAT | 1.45 | 1.28
2 | CGGCCT | 1.13 | 1.24
3 | AAATCA | 1.23 | 1.19
4 | GAAGAA | 1.17 | 1.14
5 | CCCGTC | 0.992 | 1.11
6 | GCTGCG | 0.991 | 1.11
7 | GAAAAC | 1.16 | 1.05
8 | TATTAC | 1.31 | 1.19
9 | ACTTCG | 1.25 | 1.42
10 | CTACAA | 1.21 | 1.19
11 | CGATGG | 1.46 | 1.31
12 | TCTTCG | 1.45 | 1.69
13 | GATTTG | 1.19 | 1.24
14 | GGATGC | 1.13 | 1.23
15 | AAACTC | 1.04 | 1.23
16 | TAGTGT | 1.4 | 1.08
17 | CCCACC | 1.26 | 1.21
18 | ACCCGA | 1.04 | 1.07
19 | TCCGAT | 1.25 | 1.37
20 | CTTGCT | 1.34 | 1.41
21 | TCCGCC | 1.45 | 1.63
22 | AATGTT | 1.46 | 1.53
23 | ATAATG | 1.16 | 1.02

Row | Sequence | binding signal (ELK4) | binding signal (ETV4)
24 | TCGTAT | 0.899 | 0.971
25 | CCACTA | 1.06 | 1.09
26 | ATTATA | 1.29 | 1.23
27 | TACGCG | 1.25 | 1.1
28 | AATCCT | 1.33 | 1.25
29 | CCGGCC | 1.27 | 1.25
30 | AAGTAT | 1.31 | 1.4
31 | ACCTGG | 1.25 | 1.25
32 | AATATC | 1.48 | 1.58
33 | TATAGA | 1 | 1.09
34 | TCAATT | 1.08 | 1.22
35 | ATTCCA | 1.19 | 1.19
36 | AGCTGC | 1.11 | 1.17
37 | AAGGAT | 1.08 | 1.13
38 | TATCCC | 1.64 | 1.56
39 | GTTTTT | 1.32 | 1.26
40 | TTGCTC | 1.16 | 1.36
41 | GGTAAA | 1.11 | 1.05
42 | AGTCCC | 0.971 | 1
43 | AGCTCT | 1.22 | 1.3
44 | TTTTCC | 1.62 | 1.6
45 | TCCTAA | 1.39 | 1.4
46 | ACTCGA | 1.35 | 1.35

Row | Sequence | binding signal (ELK4) | binding signal (ETV4)
47 | GACTCC | 1.12 | 1.26
48 | CTCGAC | 1.49 | 1.51
49 | ACGGCA | 0.922 | 1.02
50 | GCCGCC | 0.973 | 1.03
51 | GTACGC | 0.989 | 1.13
52 | CGATCA | 1.07 | 1.15
53 | TGACCC | 1.39 | 1.37
54 | TTGCTG | 1.34 | 1.29
55 | CACCTC | 1.14 | 1.25
56 | CAACCG | 0.974 | 1.15
57 | TATCTT | 1.38 | 1.25
58 | TAGATC | 0.957 | 1
59 | TTGTTG | 1.19 | 1.12
60 | TTACTT | 1.33 | 1.52
61 | GGCCTT | 1.09 | 1.24
62 | CTATTT | 1.88 | 1.65
63 | CCGACG | 1.22 | 1.28
64 | GAATTG | 1.04 | 1.08
65 | AACTGA | 0.976 | 1.08
66 | ACATTT | 1.36 | 1.39
67 | GCAACT | 1.2 | 1.18
68 | CCTGTA | 1.16 | 1.2
69 | TTTCTA | 1.34 | 1.4

Row | Sequence | binding signal (ELK4) | binding signal (ETV4)
70 | CCTAAC | 1.36 | 1.41
71 | CTTAAT | 1.22 | 1.32
72 | AATATA | 1.39 | 1.27
73 | GCGCCC | 1.02 | 1.13
74 | TCTCAT | 1.37 | 1.34
75 | GTCCAT | 1.18 | 1.12
76 | GGATAT | 1.48 | 1.67
77 | TTTAAG | 1.22 | 1.28
78 | CAAAGC | 1.24 | 1.06
79 | ACTGCA | 1.25 | 1.14
80 | AATCTG | 1.55 | 1.45
81 | TAACTT | 1.32 | 1.5
82 | CGTATA | 1.07 | 1.1
83 | ACTTGG | 1.28 | 1.22
84 | CAACGC | 1.03 | 1.16
85 | CTCGTC | 1.57 | 1.37
86 | AAAACG | 1.19 | 1.12
87 | AATATT | 1.35 | 1.3
88 | TTATGG | 1.24 | 1.44
89 | GTACTA | 0.975 | 1.12
90 | GTGTCT | 0.824 | 1.04
91 | CGACTG | 1.22 | 1.15
92 | TATCGC | 1.3 | 1.19

22 entries from above, reformatted:

| Row | Sequence | binding signal (ELK4) | binding signal (ETV4) |
| --- | --- | --- | --- |
| 68 | CCTGTA | 1.16 | 1.2 |
| 69 | TTTCTA | 1.34 | 1.4 |
| 70 | CCTAAC | 1.36 | 1.41 |
| 71 | CTTAAT | 1.22 | 1.32 |
| 72 | AATATA | 1.39 | 1.27 |
| 73 | GCGCCC | 1.02 | 1.13 |
| 75 | GTCCAT | 1.18 | 1.12 |
| 76 | GGATAT | 1.48 | 1.67 |
| 77 | TTTAAG | 1.22 | 1.28 |
| 78 | CAAAGC | 1.24 | 1.06 |
| 79 | ACTGCA | 1.25 | 1.14 |
| 81 | TAACTT | 1.32 | 1.5 |
| 82 | CGTATA | 1.07 | 1.1 |
| 83 | ACTTGG | 1.28 | 1.22 |
| 84 | CAACGC | 1.03 | 1.16 |
| 85 | CTCGTC | 1.57 | 1.37 |
| 86 | AAAACG | 1.19 | 1.12 |
| 87 | AATATT | 1.35 | 1.3 |
| 88 | TTATGG | 1.24 | 1.44 |
| 90 | GTGTCT | 0.824 | 1.04 |
| 91 | CGACTG | 1.22 | 1.15 |
| 92 | TATCGC | 1.3 | 1.19 |

Next part

Row | Sequence | binding signal (ELK4) | binding signal (ETV4)
93 | TACAGG | 1.26 | 1.12
94 | TACCAT | 1.27 | 1.05
95 | CGGCAT | 1.1 | 1.13
96 | TTCCCG | 1.69 | 1.92
97 | ACTGGA | 0.991 | 1
98 | GTTTCA | 1.28 | 1.31
99 | GAAGCG | 1.2 | 1.36
100 | GGTTCC | 1.38 | 1.63
101 | CACCGA | 1.13 | 1.09
102 | ATTCGA | 1.2 | 1.39
103 | CATGAT | 1.13 | 1.15
104 | TGGACT | 1.25 | 1.26
105 | TACGGA | 1.15 | 1.22
106 | TTCTTA | 1.5 | 1.32
107 | TCAAAG | 1.21 | 1.17
108 | CACCCC | 1.47 | 1.25
109 | TACGGC | 1.19 | 1.27
110 | TCTAGA | 0.974 | 0.961
111 | TTCTAA | 1.22 | 1.19
112 | GCTTGT | 0.972 | 1.18
113 | CTATCG | 1.09 | 1
114 | TAAACT | 1.11 | 1.22
